Measured values as given in patent US20130267422A1, “COMPOSITION FOR CONTROLLING PLANT DISEASES COMPRISING 3-PENTANOL AS EFFECTIVE COMPONENT” (Korea Research Institute Of Bioscience And Biotechnology, priority 2010, published 2013).

Tested on: pepper
Test: Growth and yield of pepper under field conditions
Type: in vivo
Conditions: harvest period

## CCC(O)CC [3-pentanol]
Versus 0.5 mM BTH
  yield compared with BTH: higher than that of BTH
Versus control group
  plant growth: no difference
  yield: lower than the control group
